Data published in article PMC9897671.
Results are given in words; binding and its absence hold for the method and conditions named. In cells and extracts the contact can be indirect. Some results given as binding are weak or reduced against the parent protein; the word gives no strength.

Sequences of proteins named here, by UniProt entry; tags and fusion partners are left off.
UniProt Q08211: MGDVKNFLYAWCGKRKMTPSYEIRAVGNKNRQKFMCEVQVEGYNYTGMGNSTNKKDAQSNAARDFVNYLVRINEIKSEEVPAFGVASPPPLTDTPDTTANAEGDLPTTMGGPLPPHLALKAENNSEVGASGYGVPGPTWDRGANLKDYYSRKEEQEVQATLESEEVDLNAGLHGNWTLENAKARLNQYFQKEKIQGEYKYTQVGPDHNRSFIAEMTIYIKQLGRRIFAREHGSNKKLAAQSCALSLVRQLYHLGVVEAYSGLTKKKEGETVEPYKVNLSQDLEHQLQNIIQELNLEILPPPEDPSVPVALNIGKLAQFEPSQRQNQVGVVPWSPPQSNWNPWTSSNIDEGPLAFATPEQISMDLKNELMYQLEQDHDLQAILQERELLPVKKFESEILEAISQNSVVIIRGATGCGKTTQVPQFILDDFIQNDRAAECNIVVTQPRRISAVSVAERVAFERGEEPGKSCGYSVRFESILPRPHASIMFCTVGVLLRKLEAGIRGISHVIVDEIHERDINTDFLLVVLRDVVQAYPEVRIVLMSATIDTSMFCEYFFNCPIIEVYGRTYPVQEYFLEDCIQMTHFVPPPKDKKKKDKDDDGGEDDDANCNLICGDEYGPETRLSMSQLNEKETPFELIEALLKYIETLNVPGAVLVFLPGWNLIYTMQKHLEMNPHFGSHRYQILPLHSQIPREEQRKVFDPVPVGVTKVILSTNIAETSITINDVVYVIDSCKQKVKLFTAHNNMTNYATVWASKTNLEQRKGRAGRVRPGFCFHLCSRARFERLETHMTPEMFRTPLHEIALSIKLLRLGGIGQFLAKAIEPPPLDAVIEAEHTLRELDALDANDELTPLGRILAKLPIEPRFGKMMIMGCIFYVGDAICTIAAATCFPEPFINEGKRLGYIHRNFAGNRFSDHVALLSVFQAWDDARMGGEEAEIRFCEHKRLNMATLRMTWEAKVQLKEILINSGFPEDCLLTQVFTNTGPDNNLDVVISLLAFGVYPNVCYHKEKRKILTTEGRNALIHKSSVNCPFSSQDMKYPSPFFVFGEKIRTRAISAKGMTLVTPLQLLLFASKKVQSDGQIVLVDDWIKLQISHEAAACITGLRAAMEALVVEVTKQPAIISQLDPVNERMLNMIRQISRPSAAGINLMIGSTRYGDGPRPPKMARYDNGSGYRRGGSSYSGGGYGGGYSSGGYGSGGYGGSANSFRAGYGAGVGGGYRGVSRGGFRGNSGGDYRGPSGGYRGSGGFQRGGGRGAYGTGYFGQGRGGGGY
UniProt P42224: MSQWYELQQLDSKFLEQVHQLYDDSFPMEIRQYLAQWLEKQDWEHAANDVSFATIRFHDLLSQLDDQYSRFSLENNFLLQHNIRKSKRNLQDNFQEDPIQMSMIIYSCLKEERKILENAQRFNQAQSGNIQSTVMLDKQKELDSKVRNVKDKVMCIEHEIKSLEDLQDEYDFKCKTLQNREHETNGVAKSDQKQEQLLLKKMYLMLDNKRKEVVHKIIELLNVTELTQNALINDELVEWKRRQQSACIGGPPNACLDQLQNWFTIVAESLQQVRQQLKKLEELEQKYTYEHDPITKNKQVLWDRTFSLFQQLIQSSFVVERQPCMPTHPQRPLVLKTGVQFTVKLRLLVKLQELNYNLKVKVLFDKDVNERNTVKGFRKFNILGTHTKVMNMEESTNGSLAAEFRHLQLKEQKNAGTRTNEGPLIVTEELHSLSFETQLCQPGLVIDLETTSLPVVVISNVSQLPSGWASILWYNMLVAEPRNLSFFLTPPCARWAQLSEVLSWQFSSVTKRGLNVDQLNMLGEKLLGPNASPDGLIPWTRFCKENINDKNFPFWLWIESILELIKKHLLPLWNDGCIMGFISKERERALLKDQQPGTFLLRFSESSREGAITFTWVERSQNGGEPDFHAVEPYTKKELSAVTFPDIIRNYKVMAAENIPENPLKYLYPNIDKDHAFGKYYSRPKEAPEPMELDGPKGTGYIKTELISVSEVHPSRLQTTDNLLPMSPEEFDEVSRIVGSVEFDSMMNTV

Biological target: Flag-tagged DHX9 (UniProt Q08211)
Assay: co-IP

binding: binds
Substance: GFP-tagged STAT1 (from UniProt P42224 1-750)
